This note sets out measurements from publication PMC7819943, “Rice protein-binding microarrays: a tool to detect cis-acting elements near promoter regions in rice”.

The chains behind the UniProt entries cited, without tags or fusion partners.
UniProt Q0JBA9, entry or part of it: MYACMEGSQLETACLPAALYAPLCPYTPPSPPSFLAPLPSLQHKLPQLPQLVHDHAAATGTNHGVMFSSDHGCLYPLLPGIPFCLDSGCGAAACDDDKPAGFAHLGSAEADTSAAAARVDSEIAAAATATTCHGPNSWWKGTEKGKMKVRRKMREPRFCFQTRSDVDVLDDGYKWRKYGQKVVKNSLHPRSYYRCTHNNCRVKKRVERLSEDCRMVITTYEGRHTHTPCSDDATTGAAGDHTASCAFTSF

The other results are listed elsewhere or left out.

The assay has as its target OsWRKY34 (Oryza sativa, UniProt Q0JBA9 1-250). Put plainly: protein-binding microarray (RPBM); PBS, 2% BSA, 51.3 ng/ul salmon testes DNA, 50 uM zinc acetate, 200 nM TF, 25 C, 1 h; high values mean tight binding. Particulars: protein: recombinant; tags: N-terminal polyhistidine and DsRed monomer fusion (pET32a); label: CyDye5-dUTP incorporated in the synthesized complementary strand; 3' TTTTT single-stranded linker to array surface; dsDNA, one strand shown. An outline of the steps:
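An Axon 4000B scanner gave the binding signal as per-feature fluorescence intensity in arbitrary units. This followed washing of a custom Agilent array that had been incubated for 1 h at 25 °C with 200 nM protein in PBS, 2% BSA, salmon testes DNA and 50 µM zinc acetate. The proteins were transcription factors fused at the N-terminus to polyhistidine and DsRed, expressed in E. coli BL21-CodonPlus and purified on Ni–NTA.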
For the sequence “CCATCAGTTTTGGTTGGTGTTTTTTTTCTTTCTAAATTTCCGGAGTCACCTAGTGCAG”, the binding signal is 10500 fluorescence intensity (a.u.).

Consider “CTATGTTTTTACTGGATCTTTTTTTTGGTAGTACACGCAACGGAGTCACCTAGTGCAG”, for which the binding signal is 9510 fluorescence intensity (a.u.). Then “AGCTTCGTCATCGCTCGCCCTGCCCCTGCATATGTAACAGCGGAGTCACCTAGTGCAG”, with 8192 fluorescence intensity (a.u.); and “TGCGCGTGTCGCTGGTTCTTATGATTTATGATCATACTTACGGAGTCACCTAGTGCAG”, with 9090 fluorescence intensity (a.u.).

As for “CTATAAGGTGGTAGCGCTCTTGTTGTTGCTAGTCCAGTCTCGGAGTCACCTAGTGCAG”, the binding signal was 11700 fluorescence intensity (a.u.). In the case of “TAGTTGTCAGGTCGCTCCGCTTCATTCTGCTGTGCATTTTCGGAGTCACCTAGTGCAG” it was 10100 fluorescence intensity (a.u.).

As for “GTGGCGTCCCAATCCAATCCATTCCCAATGCGACTTCTCACGGAGTCACCTAGTGCAG”, the binding signal is 9080 fluorescence intensity (a.u.).

Regarding “TCTCCAACCACGCACCTTTGCCTAAATGTTGCCAATAAAACGGAGTCACCTAGTGCAG”, the binding signal was 8240 fluorescence intensity (a.u.). With “TGTCACCACGTCCGCAACTATTCTCCTGCCATCAGTGCACCGGAGTCACCTAGTGCAG”, the binding signal is 8130 fluorescence intensity (a.u.).

In the case of “CCTTCTTTCTCTTTCATTCTCTCTGTACTGTACGTACGTTCGGAGTCACCTAGTGCAG”, the binding signal is 9760 fluorescence intensity (a.u.). In the case of “TTTGGTGTTTTCTGCTGGTATATTAGTTATGTTTGGAGTACGGAGTCACCTAGTGCAG” it was 11600 fluorescence intensity (a.u.); in that of “ACACGATTGCTCACCCTATTCGCCGCCGCCGCCGCCGCCGCGGAGTCACCTAGTGCAG”, 8130 fluorescence intensity (a.u.). In the case of “GTGTGCATGATTTTGTCGTTTGTTTTATGCATGCTGCGTTCGGAGTCACCTAGTGCAG” it was 8230 fluorescence intensity (a.u.); in that of “ACCAGGATGGATCTACTGTAAGCACCAGTTGACCGCATTTCGGAGTCACCTAGTGCAG”, 8400 fluorescence intensity (a.u.); in that of “GGGATGGGGAAGGTCAGAGCCAATATGATCTGGTAACTCTCGGAGTCACCTAGTGCAG”, 9510 fluorescence intensity (a.u.). Then “ATGATCCTTTTTTACCTTTATACAGTATGTTCAGTCCAAACGGAGTCACCTAGTGCAG”, with 8980 fluorescence intensity (a.u.); and “CCAATTGTCGTTTCCGCACGTACATCCTGCATGGCAAAGGCGGAGTCACCTAGTGCAG”, with 8740 fluorescence intensity (a.u.). Regarding “CCTCACAAGTCACAAGTCACAAACCATCATCTTCACTAGTCGGAGTCACCTAGTGCAG”, the binding signal is 8300 fluorescence intensity (a.u.). Then “CTTCATCACCTGTTGCTTGATACTTGTTCCTTCGCAGTATCGGAGTCACCTAGTGCAG”, with 9560 fluorescence intensity (a.u.). For the sequence “TATGTTCCTTTTATCTAAGTATGCATTAATAATAGGTCTACGGAGTCACCTAGTGCAG”, the binding signal is 8080 fluorescence intensity (a.u.). For the sequence “CCCACTCGCTCTCTCTCACTCTCGCCGCGGCTTAAAGCGCCGGAGTCACCTAGTGCAG”, the binding signal is 8680 fluorescence intensity (a.u.). In the case of “GGGTGGAGATGTAAATCTGGTGAAATTGGAGGGGCTCCTTCGGAGTCACCTAGTGCAG” it was 9040 fluorescence intensity (a.u.). Then “GGAGGAGGGGTGGGGTGTTGAGCCCTGGAGAAGCCACCGCCGGAGTCACCTAGTGCAG”, with 21000 fluorescence intensity (a.u.); and “TCTCGCATGATATTCACTGTTTTTTTTATGTTACCAAACACGGAGTCACCTAGTGCAG”, with 11100 fluorescence intensity (a.u.); and “GGAAGGGGCATGCAGAGGAGCAGGAGATTCAGTTTGAAGCCGGAGTCACCTAGTGCAG”, with 8210 fluorescence intensity (a.u.).

Consider “TCTGATGTCTGTGTTTTTTTTTCTTTAGCCAGCGTTACATCGGAGTCACCTAGTGCAG”, for which the binding signal was 8420 fluorescence intensity (a.u.).

With “AACGCACGGGTATTTTTTTCTAGTCTACTTAATAATTATTCGGAGTCACCTAGTGCAG”, the binding signal was 9180 fluorescence intensity (a.u.).

On to “CCCTATAAATACATGCCCAAGCTGCTCACATTCTCATCATCGGAGTCACCTAGTGCAG”, for which the binding signal is 9400 fluorescence intensity (a.u.). Then “GTGCATGAGCCAACTTCCGGTGTATATATATATATATATACGGAGTCACCTAGTGCAG”, with 8510 fluorescence intensity (a.u.); and “TTCACCACACAGTTCGTCGATTTTTTTTCAGCAATCTTTCCGGAGTCACCTAGTGCAG”, with 11300 fluorescence intensity (a.u.). Then “GAATTTTTTTTTTCCGCTCGATCGAGTTCGCTTCGAATTCCGGAGTCACCTAGTGCAG”, with 10500 fluorescence intensity (a.u.); and “ACTTTTCTTCGATCGGCACCACCACCTTGTCCCGTGCCGTCGGAGTCACCTAGTGCAG”, with 12200 fluorescence intensity (a.u.). In the case of “CACCACGTACTTACCACCACCACCGCGCGCTCGATCGATCCGGAGTCACCTAGTGCAG” it was 12900 fluorescence intensity (a.u.); in that of “AATCGAATGTGTTAGGTCTATTTTCGCACATGTTTGGTCACGGAGTCACCTAGTGCAG”, 8060 fluorescence intensity (a.u.); in that of “CCTCCCTGACGTCACGGTCGCCGTCTTTATCTCTGCAACGCGGAGTCACCTAGTGCAG”, 8050 fluorescence intensity (a.u.). In the case of “GGTATTTTGGTTCTTTTATATTCACCTTGGAAAATTATCTCGGAGTCACCTAGTGCAG”, the binding signal is 9690 fluorescence intensity (a.u.). In the case of “GTGGTATATTTGGATGCTTCCCTTTCACGCAAGCGCGTTTCGGAGTCACCTAGTGCAG” it was 14100 fluorescence intensity (a.u.); in that of “ACTGCTCGCTGGGGATGCGGCTTCCTGTCCCGATACCTGTCGGAGTCACCTAGTGCAG”, 8040 fluorescence intensity (a.u.); in that of “AAATAGCCCCATGTTCATTGTTTGCCGCACCACAGCGTAGCGGAGTCACCTAGTGCAG”, 10100 fluorescence intensity (a.u.). In the case of “CCTATCCACCGCTACCTTGTCTCGTTGGTTTGCAGCTTTACGGAGTCACCTAGTGCAG” it was 8610 fluorescence intensity (a.u.); in that of “GCCACCGCTCAACCGCCTCCGCCGATCCGCCTCCGACGCTCGGAGTCACCTAGTGCAG”, 8500 fluorescence intensity (a.u.).

On to “ACGCGCGCCCGGTTCACGCTTTGCCTAGATCGCGTATGTACGGAGTCACCTAGTGCAG”, for which the binding signal is 8280 fluorescence intensity (a.u.).
